# PubChem BioAssay AID445 (National Center for Advancing Translational Sciences (NCATS), 2006)
# The list shows a part of the results. The main result of the screen is listed elsewhere. These columns were measured beside it and carry no call. Compounds called inactive in the main read-out are mostly missing here. The note in brackets gives the kind of curve behind each potency; many fits are weak.
# Assay: IkB Signaling
# Settings: ABC-DLBCL IkBa-CBG/CBR dual luciferase ratio (green luciferase fused to IkBa over red control in OCI-Ly3 lymphoma cells), 4 h
# In short: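 Luminescence ratio of IκBα-fused green versus native red beetle luciferase in OCI-Ly3 cells, 4 h post-doxycycline with compound; red signal alone, scaled from basal (0%) to zero light (-100%), flagged nonspecific or cytotoxic effects.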
# [1] = measured here: control luc red channel unless noted
smiles,measurement,setting,value
COc1ccc(NC(=O)CSc2nnc(-c3ccccc3Cl)n2Cc2ccco2)c(OC)c1,AC50,[1],"12.6 µM [falling, partial curve]"
Cc1cccc(CN2CCC(CNC(=O)c3c(C)oc4ncnc(N5CCCCC5)c34)CC2)c1,AC50,[1],"0.00631 µM [rising, full curve]"
CC(Sc1nc(=O)cc(N)n1CCc1ccccc1)C(=O)Nc1ccc(Cl)cc1 (centres undefined),AC50,[1],"0.0251 µM [falling, full curve]"
CCN(C(=O)C1CCC(CNS(=O)(=O)c2cccc3nsnc23)CC1)c1ccc(C)c(C)c1 (centres undefined),AC50,[1],"39.8 µM [falling, single point]"
CC(C)OCCCNC(=O)c1ccc2c(c1)NC(=O)c1ccccc1S2,AC50,[1],"39.8 µM [falling, single point]"
CCn1c(=O)sc2cc(NS(=O)(=O)c3ccc(F)c(C)c3)ccc21,AC50,[1],"20 µM [falling, partial curve]"
Cc1ccc(CSc2cn(CC(=O)N3CCCC3)c3ccccc23)cc1,AC50,[1],"10 µM [falling, partial curve]"
O=C(CCS(=O)(=O)c1cc(Br)cc2c1N(C(=O)C1CC1)CC2)NCc1ccc(Cl)cc1,AC50,[1],"12.6 µM [falling, partial curve]"
O=C(Nc1cc(-c2nc3ccccc3o2)ccc1Cl)c1ccc(N2CCCCC2)c([N+](=O)[O-])c1,AC50,[1],"15.8 µM [rising, partial curve, poor fit]"
COc1ccc(C2c3c(n(C)c4ccccc34)C(=O)N2CC(=O)Nc2ccc(C)c(Cl)c2)cc1 (centres undefined),AC50,[1],"10 µM [falling, partial curve]"
Cc1ccc(NC(=O)Cn2cc(S(=O)(=O)c3ccc(C)cc3)c(=O)c3cc4c(cc32)OCO4)cc1,AC50,[1],"1.58 µM [falling, single point]"
CC(=O)Nc1cc(OC(C)=O)c2nonc2c1OC(C)=O,AC50,[1],"20 µM [falling, partial curve]"
CCc1ccc(C(=O)c2cn(CC(=O)Nc3cccc(OC)c3)c3ccc(OC)cc3c2=O)cc1,AC50,[1],"31.6 µM [falling, single point]"
COc1ccccc1N1CCN(c2ncnc3c2cnn3-c2cc(Cl)ccc2C)CC1,AC50,[1],"5.01 µM [falling, partial curve]"
O=C(NCCc1ccccc1)c1cnc2sc(N3CCCCCC3)nn2c1=O,AC50,[1],"3.16 µM [rising, partial curve]"
O=C(c1cc2ccccc2oc1=O)N1CCN(c2ccc(Cl)cc2)CC1,AC50,[1],"39.8 µM [falling, single point]"
CCOC(=O)c1c(COc2ccccc2)oc2ccc(O)cc12,AC50,[1],"20 µM [falling, partial curve]"
Cc1ccc(C(=O)N2c3ccc(C)cc3C(C)(c3ccccc3)CC2(C)C)cc1 (centres undefined),AC50,[1],"3.16 µM [falling, full curve]"
CCOC(=O)c1ccc(N2C(=O)c3[nH]nc(-c4ccc(C)cc4)c3C2c2cccc(F)c2)cc1 (centres undefined),AC50,[1],"6.31 µM [falling, partial curve]"
COc1ccc(OCc2ccc(-c3nc4ccccc4c(=O)n3N)o2)cc1,AC50,[1],"12.6 µM [falling, partial curve]"
Cc1c(Cl)cccc1NC(=O)c1cccc(NC(=O)N2CCSc3ncccc32)c1,AC50,[1],"15.8 µM [falling, partial curve]"
Cc1ccc(CNC(=O)c2ccc3c(c2)nc(C)n3-c2cccc(F)c2)cc1,AC50,[1],"39.8 µM [falling, single point]"
CCOc1ccc(NC(=O)CSC2=Nc3ccccc3C3=NC(CCC(=O)NCc4ccccc4)C(=O)N23)cc1 (centres undefined),AC50,measured here: IkB-luc green channel,"39.8 µM [rising, single point]"
same,AC50,measured here: control luc red channel,"39.8 µM [rising, single point]"
COc1ccc2ccccc2c1CN1CCN(C(=O)c2ccccc2)CC1,AC50,[1],"15.8 µM [falling, partial curve]"
Cc1cc(C(F)(F)F)n2nc(-c3ccc(Br)cc3)cc2n1,AC50,[1],"1 µM [rising, full curve]"
Cc1ccc2c(CC(=O)Nc3sccc3C(N)=O)coc2c1,AC50,[1],"20 µM [falling, partial curve]"
CCCCOc1ccc(-c2nn(-c3ccccc3)cc2C2NC(=O)NC(C)=C2C(=O)OCC)cc1 (centres undefined),AC50,[1],"20 µM [falling, single point]"
c1ccc(SCc2nc(-c3ccccn3)no2)cc1,AC50,[1],"7.94 µM [falling, partial curve]"
CCc1ccc(Sc2cc(C(=O)NCc3ccccc3OC)c3ccccc3n2)cc1,AC50,[1],"25.1 µM [falling, partial curve, poor fit]"
CCn1c(=O)cc(SCC(=O)NCc2ccc(F)cc2Cl)c2ccccc21,AC50,[1],"20 µM [falling, partial curve]"
COc1cc(N[C@@H](C)CCCN)c2ncccc2c1,AC50,[1],"15.8 µM [falling, partial curve]"
CCc1ccc(Sc2cc(C(=O)NCc3cccc(OC)c3)c3ccccc3n2)cc1,AC50,[1],"10 µM [falling, partial curve]"
Cc1ccc(OCc2nc(-c3ccc(C(=O)N4CCN(c5ccccc5F)CC4)cc3)oc2C)cc1,AC50,[1],"7.94 µM [falling, partial curve]"
O=C1OC(C(=O)Nc2cccc(Br)c2)Cc2ccccc21 (centres undefined),AC50,[1],"1 µM [rising, full curve]"
Cc1ccc(NC(=O)c2ccc(-c3cccc(Cl)c3C)o2)cc1,AC50,[1],"25.1 µM [falling, partial curve]"
COc1ccc(OC)c(CNC(=O)c2cc3c(-c4ccc(OC)c(OC)c4)nn(C)c3s2)c1,AC50,[1],"3.16 µM [falling, full curve]"
CCCCCn1c(=O)[nH]c2cc(C(=O)Nc3cc(C)cc(C)c3)ccc2c1=O,AC50,[1],"0.0501 µM [rising, full curve, poor fit]"
CN(C)S(=O)(=O)N(CC(=O)NCCSCc1ccccc1)c1ccccc1,AC50,[1],"10 µM [falling, partial curve]"
COc1ccc(Cl)cc1NC(=O)c1cc(S(=O)(=O)NC2CCCCCC2)ccc1F,AC50,[1],"20 µM [falling, partial curve, poor fit]"
Cc1ccc(C)c(NC(=O)CN2CCCN(Cc3cccc(Cl)c3)S2(=O)=O)c1,AC50,[1],"12.6 µM [falling, partial curve]"
COc1cccc(NC(=O)/C=C\c2ccc(Cl)cc2)c1,AC50,[1],"5.01 µM [falling, partial curve]"
CCC1(C)CC(=O)c2c(ccc3oc(C(=O)NCc4ccccc4)c(C)c23)O1 (centres undefined),AC50,[1],"39.8 µM [falling, single point]"
COc1cccc(-c2cc(C(=O)Nc3c(C)nn(Cc4ccccc4Cl)c3C)no2)c1,AC50,[1],"15.8 µM [falling, partial curve]"
Cc1cc2nnc(SCc3ccc(F)cc3)n2c2ccccc12,AC50,[1],"20 µM [falling, partial curve]"
CC(C)CCn1c(=O)c2cccnc2n(CC(=O)Nc2ccc(F)cc2)c1=O,AC50,[1],"20 µM [falling, partial curve]"
Cc1occc1-c1nnc(SCC(=O)Nc2ccccc2)n1CCc1ccccc1,AC50,[1],"15.8 µM [falling, partial curve]"
CN1CCN(C2(CNC(=O)c3ccc(C(C)(C)C)cc3)CCCCC2)CC1,AC50,[1],"15.8 µM [falling, partial curve]"
COc1ccc(OCC(=O)Nc2nnc(S(=O)(=O)N3CCc4ccccc43)s2)cc1,AC50,[1],"0.631 µM [rising, full curve, poor fit]"
Cc1cccc(C)c1Nc1c(-c2ccccc2F)nc2cccc(C)n12,AC50,[1],"31.6 µM [falling, partial curve]"
CCOc1ccc(C(=O)/C=C/c2cn(CC(O)CN3CCCCCC3)c3ccccc23)cc1 (centres undefined),AC50,[1],"25.1 µM [falling, partial curve]"
O=C(c1ccc(N2CCOCC2)cc1)c1cccs1,AC50,[1],"10 µM [falling, partial curve]"
CCc1nnc(NC(=O)c2nc(S(=O)(=O)Cc3ccc(C)cc3)ncc2Cl)s1,AC50,[1],"7.94 µM [falling, full curve]"
COc1ccc(NC(=O)c2cccc(NC(=O)c3ccco3)c2)c(OC)c1,AC50,[1],"10 µM [falling, partial curve]"
COC(=O)c1ccc(CSc2nc(-c3ccco3)cc(C(F)(F)F)n2)o1,AC50,[1],"25.1 µM [falling, single point]"
Nc1nc(-c2c[nH]c3ccccc23)cs1,AC50,[1],"3.98 µM [falling, full curve]"
CCOC(=O)CC(NC(=O)CCc1c(C)nc2c(c(C)nn2-c2ccc(C)c(C)c2)c1C)c1ccc(C)cc1 (centres undefined),AC50,[1],"5.01 µM [falling, full curve, poor fit]"
Cc1cccc(-n2ncc(C(=O)N3CCN(C4CCCCC4)CC3)c2C2CCN(C(=O)OC(C)(C)C)CC2)c1,AC50,[1],"15.8 µM [falling, partial curve]"
COc1cccc(C(=O)NCc2ccc3c(c2)CCN3C(=O)c2ccncc2)c1,AC50,[1],"39.8 µM [falling, single point]"
CCOC(=O)Cc1csc(NC(=O)c2cccc(OC)c2)n1,AC50,[1],"12.6 µM [falling, partial curve]"
COc1ccccc1-c1nc(SCC(=O)c2ccccc2)n[nH]1,AC50,[1],"0.01 µM [falling, full curve]"
COc1ccc(-c2[nH]c(-c3cccc(OC)c3)nc2SCC(=O)Nc2ccc3c(c2)OCO3)cc1,AC50,[1],"3.16 µM [falling, full curve]"
CCN(c1cccc(C)c1)S(=O)(=O)c1ccc(N2CCCCS2(=O)=O)cc1,AC50,[1],"0.00501 µM [rising, full curve, poor fit]"
COc1ccccc1C(=O)Oc1c(Sc2ccccc2)c(C)nn1C(C)(C)C,AC50,[1],"12.6 µM [falling, partial curve]"

# Random excerpt: 3 entries already listed.
smiles,measurement,setting,value
CCc1ccc(Sc2cc(C(=O)NCc3cccc(OC)c3)c3ccccc3n2)cc1,AC50,[1],"10 µM [falling, partial curve]"
CCCCCn1c(=O)[nH]c2cc(C(=O)Nc3cc(C)cc(C)c3)ccc2c1=O,AC50,[1],"0.0501 µM [rising, full curve, poor fit]"
Cc1ccc(NC(=O)Cn2cc(S(=O)(=O)c3ccc(C)cc3)c(=O)c3cc4c(cc32)OCO4)cc1,AC50,[1],"1.58 µM [falling, single point]"
